Laboratory results as given in PubChem BioAssay AID1487 (National Center for Advancing Translational Sciences (NCATS), 2009).
This is one part of the list. Shown are side measurements of this screen, not its main read-out; they come without a call. Compounds called inactive in the main read-out are mostly missing here. The note in brackets gives the kind of curve behind each potency; many fits are weak.

Test: qHTS Assay for Modulators of Lamin A Splicing
Settings: HeLa LMNA splicing GFP/RFP minigene ratio, 48 h
In short: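 Read-out is the ratio of GFP to DsRed2 object intensity, acquired by 488 nm laser-scanning cytometry on HeLa lamin A-EGFP minigene reporter cells. Compound incubation 48 hrs at 37 °C in Opti-MEM with 2% FBS; DMSO 0.5% final.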

[1] = measured here: RFP viability control channel
[2] = measured here: GFP splicing reporter channel

| SMILES | AC50 [1] | AC50 [2] |
| --- | --- | --- |
| C=C(C)c1cccc(C(C)(C)NC(=O)Nc2cc(C)ccn2)c1 | 3.16 µM [rising, single point] | – |
| COc1ccc(OC)c(S(=O)(=O)Nc2ccc(Oc3ccccc3)cc2)c1 | 5.01 µM [rising, partial curve] | 2 µM [rising, full curve] |
| Clc1ccccc1N=C1NN=C(c2cccs2)CS1 | 0.01 µM [falling, full curve, poor fit] | – |
| CCCCCCCCOC(=O)C[N+](C)(C)C/C=C(/C)Cl | 17.8 µM [rising, single point] | – |
| CN(C)Cc1c(O)ccc2oc(Cc3ccccc3)cc12 | 8.91 µM [rising, partial curve] | – |
| COc1ccc(N2CCN(C(=O)CSc3nnc4c(C)cc5c(C)cc(C)cc5n34)CC2)cc1 | 12.6 µM [rising, partial curve, poor fit] | – |
| CCC(C)n1c(=S)[nH]c2c(sc3ccc([N+](=O)[O-])cc32)c1=O (stereo not drawn) | 5.62 µM [rising, single point] | – |
| Cc1ccc(NC(=O)C(=O)NCCc2csc3nc(-c4ccccc4C)nn23)cc1Cl | 0.112 µM [falling, full curve, poor fit] | 0.251 µM [falling, full curve, poor fit] |
| O=C(Nc1ccc(S(=O)(=O)N(Cc2ccccc2)c2ccccc2)cc1)c1ccc([N+](=O)[O-])cc1 | 5.01 µM [falling, partial curve, poor fit] | 7.94 µM [falling, partial curve, poor fit] |
| O=[N+]([O-])c1cccc(CSc2ncnc3ccccc23)c1 | – | 11.2 µM [falling, partial curve] |
| CN1N=C(c2ccc(Cl)cc2)CC(c2ccc(Cl)cc2)C1=O (stereo not drawn) | – | 1.26 µM [rising, single point] |
| COC(=O)c1ccccc1NC(=O)CN1CCC(NC(=O)c2ccccc2C)CC1 | 20 µM [rising, single point] | 8.91 µM [rising, partial curve, poor fit] |
| CCCN(CC(=O)Nc1ccccc1C)C(=O)CCl | 35.5 µM [falling, single point] | 7.08 µM [falling, partial curve, poor fit] |
| CC(Oc1ccc(Br)cc1)C(=O)N1CCc2ccccc21 (stereo not drawn) | 25.1 µM [rising, single point] | – |
| CCOc1ccc(NC(=O)/C(C#N)=C/c2ccc(N3CCCC3)c(C)c2)cc1 | 1.78 µM [falling, partial curve, poor fit] | 17.8 µM [falling, single point] |
| CC(C)CCNC(=O)Nc1cc(C(=O)NCc2cccc(F)c2)ccc1N1CCCC1 | – | 0.0282 µM [falling, full curve, poor fit] |
| O=c1c2ccccc2sc2nc(C3CCCCC3)n(Cc3ccco3)c(=O)c12 | 35.5 µM [falling, single point] | – |
| CCOc1cc(S(=O)(=O)NCc2ccc3c(c2)OCO3)ccc1F | 31.6 µM [rising, single point] | – |
| CC(C)CC(=O)/C=C/n1c(=S)oc2ccccc21 | 20 µM [rising, single point] | – |
| Cc1ccc(N=Nc2c(O)ccc3n[nH]nc23)cc1 | 35.5 µM [falling, partial curve, poor fit] | 35.5 µM [falling, single point] |
| Oc1[nH]c2ccccc2c1C=Nc1ccc2c(c1)OCO2 | 20 µM [rising, single point] | – |
| Cc1ccc(C)c(Cn2c(=O)cc(C)c3c(C)nn(C)c32)c1 | 15.8 µM [falling, single point] | 10 µM [falling, partial curve] |
| COCCCNC(=O)/C=C1\Sc2ccccc2N(Cc2ccccc2F)C1=O | 14.1 µM [rising, single point] | 15.8 µM [rising, single point] |
| CCc1c(C)nc(SCC(=O)Nc2cccc(Br)c2)[nH]c1=O | 22.4 µM [rising, partial curve] | – |
| CC[n+]1c(/C=C/Nc2ccccc2)sc2ccccc21 | 35.5 µM [rising, single point] | 2.82 µM [rising, partial curve, poor fit] |
| COc1ccc(NC(=O)/C=C\C(=O)N(c2ccc(C(C)C)cc2)C(C(=O)NCc2ccco2)c2ccc(F)cc2)cc1 (stereo not drawn) | 14.1 µM [rising, partial curve] | – |
| O=C(Nc1ccc(Cl)cc1Cl)C1CCC(=O)N1Cc1ccccc1Cl (stereo not drawn) | 10 µM [rising, partial curve] | – |

| SMILES | AC50 [1] | AC50 [2] |
| --- | --- | --- |
| Cc1cc(N2CCN(C)CC2)nc2ccc(NC(=O)c3ccc(Br)o3)cc12 | 35.5 µM [rising, single point] | – |
| COc1ccc(N2CCN(C(=O)c3ccc(C)cc3Cl)CC2)cc1 | 11.2 µM [rising, partial curve] | 2.82 µM [rising, full curve] |
| O=C1c2ccccc2C(=O)c2c1oc(C(F)(F)F)c2C(=O)c1ccccc1 | 3.55 µM [falling, full curve] | 3.16 µM [falling, full curve] |
| Cc1nc2ccccc2c2nc(NC(=O)C(F)(F)F)nn12 | 0.00316 µM [falling, full curve, poor fit] | 0.00501 µM [falling, full curve, poor fit] |
| CCc1cccc(C)c1NC(=S)NCc1ccc2[nH]c(C)cc2c1 | 35.5 µM [rising, single point] | – |
| CS(=O)(=O)N(Cc1ccc(Cl)cc1)c1ccc(C(=O)NCC2CCCO2)cc1 (stereo not drawn) | – | 3.98 µM [rising, partial curve] |
| CCCCn1c(-c2ccco2)n[nH]c1=S | 0.00708 µM [falling, full curve] | – |
| CCN1CCN(CCCNC(=O)c2ccc3nc(Cc4ccccc4)oc3c2)CC1 | 5.62 µM [rising, single point] | 4.47 µM [rising, partial curve] |
| CCCC/C(O)=C1\C(=O)CC(C)(C)CC1=Nc1ccccc1OC | 5.01 µM [rising, partial curve] | – |
| CC(C)N(C(=O)CSc1nc2ccccc2n1Cc1ccc(F)cc1)C(C)C | 12.6 µM [rising, partial curve] | – |
| CC(C)NC(=S)N1CCN(c2ncccn2)CC1 | 0.00501 µM [falling, full curve, poor fit] | 0.0398 µM [falling, full curve, poor fit] |
| CC(C)Cc1cc(C(=O)N2CCN(c3ccc(F)cc3)CC2)no1 | 11.2 µM [rising, partial curve] | – |
| O=C(COc1ccc(Cl)cc1)N1CCN(S(=O)(=O)c2ccc(Cl)cc2)CC1 | 14.1 µM [rising, single point] | 11.2 µM [rising, single point] |
| COc1ccccc1NS(=O)(=O)c1cccc(NC(=O)Nc2ccc(Cl)cc2)c1 | 31.6 µM [falling, partial curve] | 17.8 µM [falling, partial curve] |
| O=c1c2c3c(sc2nc2n1CCC2)CCCCC3 | 1.78 µM [rising, full curve] | 2 µM [rising, partial curve, poor fit] |
| CC(=O)SC1CC2=CC(=O)CC[C@]2(C)C2CC[C@@]3(C)[C@@H](CC[C@@]34CCC(=O)O4)C12 (stereo partly drawn) | 8.91 µM [falling, partial curve] | 0.00447 µM [falling, full curve, poor fit] |
| CC(=O)c1cc(NC(=O)c2ccc([N+](=O)[O-])cc2)c(=O)oc1C | 31.6 µM [rising, single point] | 15.8 µM [falling, partial curve, poor fit] |
| O=C(Nc1ccc(F)cc1)Nc1ccc(Cl)cn1 | 35.5 µM [falling, single point] | 0.891 µM [falling, partial curve, poor fit] |
| COC(=O)Cc1ccc(NC(=S)NCCCN2CCOCC2)cc1 | 0.0794 µM [falling, full curve, poor fit] | – |
| Cc1ccc(-n2c(SCC(=O)NCc3ccco3)nnc2-c2cccnc2)c(C)c1 | 31.6 µM [rising, single point] | 11.2 µM [rising, partial curve] |
| CC(=O)c1sc(-c2ccccc2)cc1N | 5.01 µM [rising, full curve] | 11.2 µM [rising, partial curve] |
| O=C(N1CCCCC1)N1CCN(c2ccc(Cl)cc2)CC1 | 12.6 µM [rising, single point] | – |
| COCCNC(=O)CSc1nc(-c2ccccc2C)nc2c1c(=O)n(C)c(=O)n2C | 35.5 µM [rising, single point] | – |
| COc1ccc(CCC(=O)NCCc2csc(-c3ccc(Cl)cc3)n2)cc1 | – | 7.94 µM [falling, full curve, poor fit] |
| CCN(CC(=O)NCc1ccc(F)cc1)C(=O)/C=C/c1ccco1 | 0.447 µM [falling, partial curve, poor fit] | 0.631 µM [falling, full curve, poor fit] |
| Cc1ccc(NC(=O)COC(=O)c2ccc([N+](=O)[O-])s2)c(C)c1 | – | 0.0316 µM [falling, full curve, poor fit] |
| CCOC(=O)c1c(N)sc(C(=O)N2CCCCCC2)c1C | 0.141 µM [rising, single point] | – |

Some of these compounds in order of SMILES length, descending:

| SMILES | AC50 [1] | AC50 [2] |
| --- | --- | --- |
| COCCNC(=O)CSc1nc(-c2ccccc2C)nc2c1c(=O)n(C)c(=O)n2C | 35.5 µM [rising, single point] | – |
| Cc1ccc(-n2c(SCC(=O)NCc3ccco3)nnc2-c2cccnc2)c(C)c1 | 31.6 µM [rising, single point] | 11.2 µM [rising, partial curve] |
| O=c1c2c3c(sc2nc2n1CCC2)CCCCC3 | 1.78 µM [rising, full curve] | 2 µM [rising, partial curve, poor fit] |
